Source: PMC3630204
No constants are given. Whether binding was seen depends on the method and setting. Tags and fused reporters may be left off the sequences shown.

Assays:
[1] = molecular target: E. coli MenH Tyr85Phe mutant, His-tagged (E. coli) (UniProt P37355); experiment: SEC; Superdex 200 16/60 column in 50 mM Tris-HCl pH 8.5, 150 mM NaCl, 1% v/v glycerol, 1 mM TCEP; self-association; both purified
[2] = molecular target: E. coli MenH Arg124Ala mutant, His-tagged (E. coli) (UniProt P37355); experiment: as above

binding [1] | binding [2] | Binder
no binding |  | E. coli MenH Tyr85Phe mutant, His-tagged (enzyme, UniProt P37355 1-252) MILHAQAKHGKPGLPWLVFLHGFSGDCHEWQEVGEAFADYSRLYVDLPGHGGSAAISVDGFDDVTDLLRKTLVSYNILDFWLVGFSLGGRVAMMAACQGLAGLCGVIVEGGHPGLQNAEQRAERQRSDRQWVQRFLTEPLTAVFADWYQQPVFASLNDDQRRELVALRSNNNGATLAAMLEATSLAVQPDLRANLSARTFAFYYLCGERDSKFRALAAELAADCHVIPRAGHNAHRENPAGVIASLAQILRF
 | no binding | E. coli MenH Arg124Ala mutant, His-tagged (enzyme, UniProt P37355 1-252) MILHAQAKHGKPGLPWLVFLHGFSGDCHEWQEVGEAFADYSRLYVDLPGHGGSAAISVDGFDDVTDLLRKTLVSYNILDFWLVGYSLGGRVAMMAACQGLAGLCGVIVEGGHPGLQNAEQRAEAQRSDRQWVQRFLTEPLTAVFADWYQQPVFASLNDDQRRELVALRSNNNGATLAAMLEATSLAVQPDLRANLSARTFAFYYLCGERDSKFRALAAELAADCHVIPRAGHNAHRENPAGVIASLAQILRF
